Data on six molecules can be found in the M2OR odorant receptor database.

Chains of the proteins cited; added tags and fusions are not shown. Chains listed by the source or under a name are the forms on record and can include a tag or linker.
O51V1, as listed by the source: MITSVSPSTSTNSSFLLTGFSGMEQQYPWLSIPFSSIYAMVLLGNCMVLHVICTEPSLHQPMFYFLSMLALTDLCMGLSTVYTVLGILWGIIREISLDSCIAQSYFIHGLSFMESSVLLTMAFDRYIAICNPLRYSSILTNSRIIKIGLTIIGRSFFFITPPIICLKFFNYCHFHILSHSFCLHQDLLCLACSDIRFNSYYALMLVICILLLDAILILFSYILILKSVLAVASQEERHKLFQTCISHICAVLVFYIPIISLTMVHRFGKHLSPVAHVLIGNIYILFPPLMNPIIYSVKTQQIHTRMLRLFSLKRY
O52E1, as listed by the source: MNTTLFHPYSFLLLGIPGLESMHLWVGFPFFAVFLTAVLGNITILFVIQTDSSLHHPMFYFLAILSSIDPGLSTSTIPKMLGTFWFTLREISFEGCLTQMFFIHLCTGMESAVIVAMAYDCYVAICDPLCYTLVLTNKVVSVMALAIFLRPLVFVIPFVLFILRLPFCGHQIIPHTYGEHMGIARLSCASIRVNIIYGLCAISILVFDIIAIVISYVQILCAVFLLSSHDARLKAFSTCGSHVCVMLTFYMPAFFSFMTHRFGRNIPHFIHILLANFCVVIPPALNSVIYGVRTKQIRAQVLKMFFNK
O52E2, as listed by the source: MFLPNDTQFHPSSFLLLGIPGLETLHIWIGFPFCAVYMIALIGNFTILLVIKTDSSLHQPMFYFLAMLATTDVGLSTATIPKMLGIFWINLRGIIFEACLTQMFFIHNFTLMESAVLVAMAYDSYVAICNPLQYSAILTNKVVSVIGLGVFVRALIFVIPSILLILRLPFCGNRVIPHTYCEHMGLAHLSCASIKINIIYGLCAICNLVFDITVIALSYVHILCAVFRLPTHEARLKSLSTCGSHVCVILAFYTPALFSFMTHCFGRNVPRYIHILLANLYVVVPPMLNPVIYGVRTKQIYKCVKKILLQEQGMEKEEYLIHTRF
O52E8, as listed by the source: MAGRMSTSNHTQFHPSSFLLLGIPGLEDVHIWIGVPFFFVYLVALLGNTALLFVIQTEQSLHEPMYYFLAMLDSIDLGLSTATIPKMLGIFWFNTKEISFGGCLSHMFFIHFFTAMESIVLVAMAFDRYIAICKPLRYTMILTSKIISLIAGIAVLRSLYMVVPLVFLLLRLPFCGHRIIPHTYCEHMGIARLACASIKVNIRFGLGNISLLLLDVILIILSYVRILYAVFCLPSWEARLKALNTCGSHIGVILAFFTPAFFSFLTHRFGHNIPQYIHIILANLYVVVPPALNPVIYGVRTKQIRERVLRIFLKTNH
O52E5, as listed by the source: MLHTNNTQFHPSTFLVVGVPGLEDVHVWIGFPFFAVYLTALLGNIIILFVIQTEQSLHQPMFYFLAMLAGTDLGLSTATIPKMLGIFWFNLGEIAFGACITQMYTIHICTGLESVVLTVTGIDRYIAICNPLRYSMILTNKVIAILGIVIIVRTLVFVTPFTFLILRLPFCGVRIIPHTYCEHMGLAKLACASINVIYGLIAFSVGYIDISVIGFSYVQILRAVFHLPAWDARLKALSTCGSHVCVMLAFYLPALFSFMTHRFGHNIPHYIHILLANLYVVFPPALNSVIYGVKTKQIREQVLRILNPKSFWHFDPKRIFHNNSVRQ
O51L1, as listed by the source: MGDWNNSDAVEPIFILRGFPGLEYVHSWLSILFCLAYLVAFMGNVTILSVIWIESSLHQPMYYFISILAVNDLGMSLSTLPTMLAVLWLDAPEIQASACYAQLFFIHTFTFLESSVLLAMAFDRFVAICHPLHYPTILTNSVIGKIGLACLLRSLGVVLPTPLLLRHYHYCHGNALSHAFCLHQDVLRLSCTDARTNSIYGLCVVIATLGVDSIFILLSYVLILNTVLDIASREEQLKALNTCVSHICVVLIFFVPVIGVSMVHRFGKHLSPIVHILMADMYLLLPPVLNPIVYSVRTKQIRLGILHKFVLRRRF
O52E4, as listed by the source: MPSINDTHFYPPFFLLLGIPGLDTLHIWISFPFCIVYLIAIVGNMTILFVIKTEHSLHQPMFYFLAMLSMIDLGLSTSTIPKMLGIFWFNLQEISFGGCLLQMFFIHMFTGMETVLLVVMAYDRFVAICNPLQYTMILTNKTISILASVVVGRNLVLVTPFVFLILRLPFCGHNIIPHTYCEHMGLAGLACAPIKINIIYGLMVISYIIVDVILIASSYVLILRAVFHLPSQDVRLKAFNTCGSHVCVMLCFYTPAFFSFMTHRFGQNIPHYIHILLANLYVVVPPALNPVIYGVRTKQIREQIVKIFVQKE

Residue numbers refer to the chain shown, from its start. The entries are a selection whose mix differs from that of the whole data set. The calls were merged from several studies; some rest on single wells. The list shows a part of the results.

Common to all, as to details: stereoisomer not certain
For one assay, the system named is T1, O51G1.
T1 sequence (whole entry): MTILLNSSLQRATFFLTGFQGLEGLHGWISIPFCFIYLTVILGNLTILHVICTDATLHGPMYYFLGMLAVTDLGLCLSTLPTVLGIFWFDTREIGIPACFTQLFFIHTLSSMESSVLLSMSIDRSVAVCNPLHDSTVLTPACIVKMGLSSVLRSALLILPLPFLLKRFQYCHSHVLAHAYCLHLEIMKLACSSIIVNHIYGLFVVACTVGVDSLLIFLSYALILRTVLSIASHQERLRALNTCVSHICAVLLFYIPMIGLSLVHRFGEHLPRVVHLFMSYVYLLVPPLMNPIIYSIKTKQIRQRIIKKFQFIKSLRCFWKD
The method, boiled down: (§1)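 Each entry records the cell line, G-protein, co-transfected protein and tags used. Methods varied with the source, often transient luciferase assays in mammalian cell lines. A receptor–molecule pair is called responsive (active) if the original authors judged its signal statistically different from baseline and non-responsive (inactive) otherwise.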

For another assay, the system named is T2, O51G2.
T2 sequence (whole entry): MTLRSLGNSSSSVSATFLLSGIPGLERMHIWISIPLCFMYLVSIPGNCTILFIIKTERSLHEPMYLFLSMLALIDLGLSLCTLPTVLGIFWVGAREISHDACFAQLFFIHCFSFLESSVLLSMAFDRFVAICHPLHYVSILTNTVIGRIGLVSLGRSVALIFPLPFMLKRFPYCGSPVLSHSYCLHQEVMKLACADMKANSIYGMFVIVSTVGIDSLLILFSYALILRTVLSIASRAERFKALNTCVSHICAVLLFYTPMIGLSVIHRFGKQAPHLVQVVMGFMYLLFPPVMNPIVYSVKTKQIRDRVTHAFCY
The method, boiled down:
as §1

A further assay concerns T3, O51J1.
T3 sequence (whole entry): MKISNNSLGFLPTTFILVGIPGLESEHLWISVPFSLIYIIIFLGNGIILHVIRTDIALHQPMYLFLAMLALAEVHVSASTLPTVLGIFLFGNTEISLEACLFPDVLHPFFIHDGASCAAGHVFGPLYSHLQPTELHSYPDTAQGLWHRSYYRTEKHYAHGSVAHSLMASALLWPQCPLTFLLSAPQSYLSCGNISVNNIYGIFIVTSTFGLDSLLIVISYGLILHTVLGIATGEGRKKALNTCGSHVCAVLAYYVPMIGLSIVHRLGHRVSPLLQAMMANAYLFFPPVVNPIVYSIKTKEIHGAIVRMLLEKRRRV
The procedure, abridged:
as §1

The test system of assay [1] is T4, O51L1.
T4 sequence (whole entry): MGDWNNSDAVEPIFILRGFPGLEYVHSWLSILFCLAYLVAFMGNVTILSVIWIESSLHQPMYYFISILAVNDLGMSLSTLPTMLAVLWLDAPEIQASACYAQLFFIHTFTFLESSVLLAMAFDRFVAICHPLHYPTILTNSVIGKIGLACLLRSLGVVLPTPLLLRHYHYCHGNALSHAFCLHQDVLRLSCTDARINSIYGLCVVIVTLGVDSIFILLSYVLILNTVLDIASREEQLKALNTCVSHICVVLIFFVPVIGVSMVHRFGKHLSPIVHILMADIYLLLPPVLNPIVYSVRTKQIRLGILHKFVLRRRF
The procedure, abridged: as §1

In assay [2] the test system is T5, O51L1.
T5 sequence (whole entry): T4 sequence (whole entry) with I196T, V207A, I281M
The procedure, abridged:
as §1
The source holds these as a separate data set.

Another assay concerns T6, O51M1.
T6 sequence (whole entry): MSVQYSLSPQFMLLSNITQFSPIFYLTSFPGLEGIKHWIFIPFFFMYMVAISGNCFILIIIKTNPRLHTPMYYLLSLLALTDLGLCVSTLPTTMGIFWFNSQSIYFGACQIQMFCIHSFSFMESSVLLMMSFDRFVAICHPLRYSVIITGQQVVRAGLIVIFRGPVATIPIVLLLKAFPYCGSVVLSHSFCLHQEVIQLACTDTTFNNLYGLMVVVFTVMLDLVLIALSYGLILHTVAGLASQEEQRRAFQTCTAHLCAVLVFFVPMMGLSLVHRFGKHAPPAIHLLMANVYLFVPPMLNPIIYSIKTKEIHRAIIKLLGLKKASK
The method, boiled down:
as §1

The subject of a further assay is T7, O51Q1.
T7 sequence (whole entry): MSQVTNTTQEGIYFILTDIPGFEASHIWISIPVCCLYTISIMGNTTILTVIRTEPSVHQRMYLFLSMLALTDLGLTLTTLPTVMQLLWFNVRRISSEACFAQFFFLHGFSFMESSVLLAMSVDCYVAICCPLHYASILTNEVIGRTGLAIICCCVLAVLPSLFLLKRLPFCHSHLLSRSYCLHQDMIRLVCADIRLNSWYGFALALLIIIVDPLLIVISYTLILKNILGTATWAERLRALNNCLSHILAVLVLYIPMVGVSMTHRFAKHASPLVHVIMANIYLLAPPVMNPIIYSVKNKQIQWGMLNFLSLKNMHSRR
The method, boiled down: as §1

For the next assay, the system named is T8, O51T1.
T8 sequence (whole entry): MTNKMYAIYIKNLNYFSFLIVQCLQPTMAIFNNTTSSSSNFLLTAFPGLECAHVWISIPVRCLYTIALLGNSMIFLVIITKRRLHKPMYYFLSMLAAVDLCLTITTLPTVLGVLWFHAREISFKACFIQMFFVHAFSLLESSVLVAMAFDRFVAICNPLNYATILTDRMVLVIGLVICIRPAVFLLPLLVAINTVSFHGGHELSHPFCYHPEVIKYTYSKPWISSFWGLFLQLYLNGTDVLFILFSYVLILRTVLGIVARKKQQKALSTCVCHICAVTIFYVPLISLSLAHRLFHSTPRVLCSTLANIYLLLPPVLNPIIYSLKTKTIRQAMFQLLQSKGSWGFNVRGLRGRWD
The procedure, abridged:
as §1

Assay [3] has as its system T9, O51V1.
T9 sequence (whole entry): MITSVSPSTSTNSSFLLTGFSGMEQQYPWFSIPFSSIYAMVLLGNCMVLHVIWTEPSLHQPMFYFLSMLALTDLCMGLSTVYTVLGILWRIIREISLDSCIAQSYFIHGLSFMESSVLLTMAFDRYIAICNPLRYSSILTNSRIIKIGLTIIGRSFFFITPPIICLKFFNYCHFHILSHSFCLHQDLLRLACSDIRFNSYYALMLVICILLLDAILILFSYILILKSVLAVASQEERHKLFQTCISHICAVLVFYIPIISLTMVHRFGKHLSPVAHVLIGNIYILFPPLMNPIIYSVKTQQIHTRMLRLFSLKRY
The method, boiled down:
as §1

The test system of assay [4] is T10, O51V1.
T10 sequence (whole entry): T9 sequence (whole entry) with F30L, W53C, R90G, R189C
The method, boiled down: as §1
This is another data set of the same source.

The test system of a further assay is T11, O52A1.
T11 sequence (whole entry): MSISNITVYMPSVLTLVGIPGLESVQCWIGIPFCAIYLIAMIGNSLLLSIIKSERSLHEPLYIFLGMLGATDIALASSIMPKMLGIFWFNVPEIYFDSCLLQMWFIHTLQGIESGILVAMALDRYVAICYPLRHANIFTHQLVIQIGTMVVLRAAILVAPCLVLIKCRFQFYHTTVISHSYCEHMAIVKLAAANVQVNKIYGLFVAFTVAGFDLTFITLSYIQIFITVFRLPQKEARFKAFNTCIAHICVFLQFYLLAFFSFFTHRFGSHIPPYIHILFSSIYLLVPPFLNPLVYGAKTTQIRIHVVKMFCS
The procedure, abridged: as §1

The next assay deals with T12, O52B2.
T12 sequence (whole entry): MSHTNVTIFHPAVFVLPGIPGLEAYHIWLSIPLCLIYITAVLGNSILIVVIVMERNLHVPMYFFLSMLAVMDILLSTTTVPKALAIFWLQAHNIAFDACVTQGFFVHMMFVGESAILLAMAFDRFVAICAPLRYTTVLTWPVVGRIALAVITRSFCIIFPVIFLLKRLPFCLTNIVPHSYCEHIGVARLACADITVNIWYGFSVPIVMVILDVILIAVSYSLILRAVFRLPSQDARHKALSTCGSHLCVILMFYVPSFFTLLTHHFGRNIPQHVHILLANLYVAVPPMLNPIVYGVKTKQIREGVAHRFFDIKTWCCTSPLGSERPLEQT
The method, boiled down:
as §1

The test system of a further assay is T13, O52B6.
T13 sequence (whole entry): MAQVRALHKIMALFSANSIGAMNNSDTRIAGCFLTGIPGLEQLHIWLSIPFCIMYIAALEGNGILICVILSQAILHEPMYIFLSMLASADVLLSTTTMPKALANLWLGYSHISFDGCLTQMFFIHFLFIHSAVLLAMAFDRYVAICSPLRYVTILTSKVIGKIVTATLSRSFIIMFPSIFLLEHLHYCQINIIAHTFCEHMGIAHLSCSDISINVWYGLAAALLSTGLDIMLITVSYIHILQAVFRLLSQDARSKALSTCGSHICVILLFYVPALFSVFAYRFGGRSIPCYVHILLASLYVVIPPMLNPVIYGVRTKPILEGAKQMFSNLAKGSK
The procedure, abridged:
as §1

A further assay has as its system O52E1. The procedure, abridged: as §1
A further assay concerns O52E2. The procedure, abridged: as §1
A further assay has as its system O52E4. The method, boiled down: as §1
For a further assay, the system named is O52E5. The method, boiled down: as §1
Another assay has as its system O52E8. The method, boiled down: as §1
For the next assay, the system named is T14, O52I2.
T14 sequence (whole entry): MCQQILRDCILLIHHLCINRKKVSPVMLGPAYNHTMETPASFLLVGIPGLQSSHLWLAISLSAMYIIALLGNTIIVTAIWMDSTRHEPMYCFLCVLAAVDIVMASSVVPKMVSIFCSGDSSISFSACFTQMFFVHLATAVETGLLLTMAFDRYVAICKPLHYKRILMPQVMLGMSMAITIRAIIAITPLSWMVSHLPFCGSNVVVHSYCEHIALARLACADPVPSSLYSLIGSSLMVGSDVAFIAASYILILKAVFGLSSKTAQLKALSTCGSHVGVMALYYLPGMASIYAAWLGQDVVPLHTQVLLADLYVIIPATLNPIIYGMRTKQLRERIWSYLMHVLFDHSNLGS
The procedure, abridged:
as §1

Consider `COc1cc(C)ccc1O`, for which the “odorant receptor agonist call” value with O51G1, in the assay with O51G2, in the assay with O51J1, with O51L1 [1], in the assay on O51L1 [2] and with O51M1 was “inactive” in each case. Further, the “odorant receptor agonist call” value in the assay with O51Q1, in the assay with O51T1, in the assay with O51V1 [3], with O51V1 [4], in the assay on O52A1 and in the assay on O52B2 was “inactive” in each case. Moreover, the “odorant receptor agonist call” value with O52B6, in the assay with O52E1, in the assay on O52E2, in the assay with O52E4, in the assay on O52E5 and with O52E8 was “inactive” throughout. Further, the “odorant receptor agonist call” value in the assay with O52I2 is “inactive”.
`CC(C)(O)CCCC1=CCC(C=O)CC1` (centres undefined): the “odorant receptor agonist call” value with O51J1, with O51M1, in the assay on O51V1 [3], in the assay with O51V1 [4], in the assay with O52E4 and in the assay on O52E5 was “inactive” in each case.
On to `CC(=O)c1ccccc1`, for which the “odorant receptor agonist call” value with O51G1, with O51G2, in the assay with O51L1 [1], in the assay with O51L1 [2], with O51Q1 and in the assay on O52A1 was “inactive” in each case. In addition, the “odorant receptor agonist call” value with O52B2, in the assay with O52E1, in the assay on O52E2, with O52E8 and with O52I2 was “inactive” in each case. The “odorant receptor agonist call” value with O51T1 and in the assay with O52B6 was “active” each time.
In the case of `O=C1CCCCC1`, the “odorant receptor agonist call” value in the assay on O51G1, in the assay with O51G2, with O51L1 [1], in the assay on O51L1 [2], with O51Q1 and with O51T1 was “inactive” in each case. Besides, the “odorant receptor agonist call” value in the assay with O52A1, with O52B2, with O52B6, with O52E1, in the assay with O52E2 and with O52E8 was “inactive” throughout. Moreover, in the assay on O52I2, the “odorant receptor agonist call” value was “inactive”.
On to `CC=Cc1ccc(O)c(OC)c1`, for which the “odorant receptor agonist call” value in the assay with O51G1, with O51G2, in the assay with O51L1 [1], with O51L1 [2], in the assay on O51Q1 and in the assay with O51T1 was “inactive” throughout. The “odorant receptor agonist call” value in the assay on O52A1, in the assay on O52B6, with O52E1, in the assay on O52E8 and in the assay with O52I2 was “inactive” throughout. Further, the “odorant receptor agonist call” value in the assay on O51J1, in the assay on O51M1, in the assay with O51V1 [3], in the assay with O51V1 [4], in the assay with O52B2 and in the assay with O52E2 was “active” throughout. Further, the “odorant receptor agonist call” value with O52E4 and in the assay on O52E5 was “active” in each case.
Turning to `CC(=O)OC(C)(C)C1CC=C(C)CC1` (centres undefined), the “odorant receptor agonist call” value in the assay on O51G1, in the assay on O51G2, in the assay on O51J1, in the assay on O51L1 [1], in the assay on O51L1 [2] and with O51M1 was “inactive” each time. Moreover, the “odorant receptor agonist call” value in the assay on O51Q1, in the assay on O51T1, in the assay with O51V1 [3], in the assay on O52A1, in the assay with O52B2 and with O52B6 was “inactive” in each case. Further, the “odorant receptor agonist call” value in the assay on O52E1, in the assay on O52E2, in the assay on O52E4, in the assay with O52E5, with O52E8 and with O52I2 was “inactive” each time. The “odorant receptor agonist call” value in the assay with O51V1 [4] was “active”.
